In the supplement of paper PMC10849652:
Some of the results follow.

The chains behind the UniProt entries cited, without tags or fusion partners. Where a name states a change or a piece, a line headed by the entry shows the natural chain unless it says otherwise.
UniProt P35244: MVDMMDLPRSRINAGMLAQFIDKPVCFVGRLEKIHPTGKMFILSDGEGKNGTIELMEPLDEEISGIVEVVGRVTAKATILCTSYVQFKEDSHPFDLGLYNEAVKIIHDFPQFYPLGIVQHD
UniProt Q01974, whole entry, looked up: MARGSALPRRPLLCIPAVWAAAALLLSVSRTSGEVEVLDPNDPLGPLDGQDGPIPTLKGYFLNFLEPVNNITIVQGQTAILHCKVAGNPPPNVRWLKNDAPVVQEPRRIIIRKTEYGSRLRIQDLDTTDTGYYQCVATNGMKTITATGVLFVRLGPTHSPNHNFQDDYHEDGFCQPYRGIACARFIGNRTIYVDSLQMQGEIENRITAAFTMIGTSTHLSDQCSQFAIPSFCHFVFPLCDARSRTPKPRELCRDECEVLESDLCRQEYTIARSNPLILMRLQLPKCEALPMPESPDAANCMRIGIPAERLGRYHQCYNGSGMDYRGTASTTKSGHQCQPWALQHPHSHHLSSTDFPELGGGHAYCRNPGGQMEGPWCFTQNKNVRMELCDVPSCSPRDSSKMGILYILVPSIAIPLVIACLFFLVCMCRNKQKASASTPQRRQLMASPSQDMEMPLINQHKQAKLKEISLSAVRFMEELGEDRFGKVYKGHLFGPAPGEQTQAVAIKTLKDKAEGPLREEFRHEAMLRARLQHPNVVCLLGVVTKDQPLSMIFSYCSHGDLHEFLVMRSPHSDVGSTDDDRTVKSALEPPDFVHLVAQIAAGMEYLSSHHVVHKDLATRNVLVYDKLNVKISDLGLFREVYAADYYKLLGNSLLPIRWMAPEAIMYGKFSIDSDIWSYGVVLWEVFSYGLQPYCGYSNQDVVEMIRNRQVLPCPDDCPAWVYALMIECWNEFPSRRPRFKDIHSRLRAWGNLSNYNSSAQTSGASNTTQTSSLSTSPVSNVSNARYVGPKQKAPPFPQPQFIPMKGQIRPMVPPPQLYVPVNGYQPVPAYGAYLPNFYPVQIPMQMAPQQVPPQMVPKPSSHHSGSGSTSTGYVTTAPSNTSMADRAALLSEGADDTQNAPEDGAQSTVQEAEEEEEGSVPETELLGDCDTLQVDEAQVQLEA
UniProt Q9NQG5: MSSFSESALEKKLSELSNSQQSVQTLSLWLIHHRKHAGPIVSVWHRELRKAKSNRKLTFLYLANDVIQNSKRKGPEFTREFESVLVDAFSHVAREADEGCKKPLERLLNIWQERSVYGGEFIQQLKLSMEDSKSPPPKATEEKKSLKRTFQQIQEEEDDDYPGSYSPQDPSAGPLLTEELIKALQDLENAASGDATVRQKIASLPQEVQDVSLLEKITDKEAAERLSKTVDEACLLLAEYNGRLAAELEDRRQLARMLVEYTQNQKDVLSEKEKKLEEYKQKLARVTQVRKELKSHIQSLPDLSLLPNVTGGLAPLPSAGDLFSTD
UniProt Q5VZM2, whole entry, looked up: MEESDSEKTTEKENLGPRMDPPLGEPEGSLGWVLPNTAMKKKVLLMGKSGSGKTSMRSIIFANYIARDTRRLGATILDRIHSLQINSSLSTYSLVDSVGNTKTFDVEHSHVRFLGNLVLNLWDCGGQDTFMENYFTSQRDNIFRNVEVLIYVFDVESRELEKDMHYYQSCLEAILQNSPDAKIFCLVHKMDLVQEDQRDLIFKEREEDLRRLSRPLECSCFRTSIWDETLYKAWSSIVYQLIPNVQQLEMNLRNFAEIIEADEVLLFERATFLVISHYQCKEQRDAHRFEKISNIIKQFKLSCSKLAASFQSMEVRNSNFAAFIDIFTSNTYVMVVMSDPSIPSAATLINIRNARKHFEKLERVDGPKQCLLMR
UniProt O95059: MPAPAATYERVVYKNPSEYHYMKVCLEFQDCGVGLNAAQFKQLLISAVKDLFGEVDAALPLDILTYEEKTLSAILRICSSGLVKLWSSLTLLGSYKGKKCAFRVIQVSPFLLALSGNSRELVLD
UniProt Q15287: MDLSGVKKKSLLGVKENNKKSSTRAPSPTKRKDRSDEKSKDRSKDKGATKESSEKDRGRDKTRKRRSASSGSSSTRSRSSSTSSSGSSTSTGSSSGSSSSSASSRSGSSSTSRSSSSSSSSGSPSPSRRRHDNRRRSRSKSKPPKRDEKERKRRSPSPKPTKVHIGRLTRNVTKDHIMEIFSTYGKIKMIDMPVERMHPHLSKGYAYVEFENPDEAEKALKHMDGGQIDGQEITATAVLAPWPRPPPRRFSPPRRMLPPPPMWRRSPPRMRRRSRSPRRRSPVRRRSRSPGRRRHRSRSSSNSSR
UniProt Q8N5L8: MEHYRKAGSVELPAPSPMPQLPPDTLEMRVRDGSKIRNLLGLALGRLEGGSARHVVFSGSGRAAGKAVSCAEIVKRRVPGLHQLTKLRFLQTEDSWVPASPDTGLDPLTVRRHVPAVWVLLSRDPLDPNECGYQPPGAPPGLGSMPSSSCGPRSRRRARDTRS
UniProt Q9H4A4: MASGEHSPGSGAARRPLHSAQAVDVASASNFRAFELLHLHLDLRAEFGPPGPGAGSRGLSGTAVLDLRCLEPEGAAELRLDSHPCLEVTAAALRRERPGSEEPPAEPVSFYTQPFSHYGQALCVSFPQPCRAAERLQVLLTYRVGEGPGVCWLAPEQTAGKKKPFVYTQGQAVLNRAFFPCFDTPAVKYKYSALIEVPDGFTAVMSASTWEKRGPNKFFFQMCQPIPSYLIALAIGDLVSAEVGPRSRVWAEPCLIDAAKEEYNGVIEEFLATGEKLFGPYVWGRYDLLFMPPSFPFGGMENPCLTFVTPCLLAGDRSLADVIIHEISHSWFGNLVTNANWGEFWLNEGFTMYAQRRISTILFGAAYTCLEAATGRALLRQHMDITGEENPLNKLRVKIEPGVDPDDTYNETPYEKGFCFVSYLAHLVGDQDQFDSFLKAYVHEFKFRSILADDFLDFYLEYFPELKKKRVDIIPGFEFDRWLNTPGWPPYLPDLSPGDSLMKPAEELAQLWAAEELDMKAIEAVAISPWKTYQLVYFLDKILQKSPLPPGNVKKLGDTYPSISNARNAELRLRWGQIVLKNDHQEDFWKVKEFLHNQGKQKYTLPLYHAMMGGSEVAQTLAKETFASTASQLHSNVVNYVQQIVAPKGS
UniProt P51812, whole entry, looked up: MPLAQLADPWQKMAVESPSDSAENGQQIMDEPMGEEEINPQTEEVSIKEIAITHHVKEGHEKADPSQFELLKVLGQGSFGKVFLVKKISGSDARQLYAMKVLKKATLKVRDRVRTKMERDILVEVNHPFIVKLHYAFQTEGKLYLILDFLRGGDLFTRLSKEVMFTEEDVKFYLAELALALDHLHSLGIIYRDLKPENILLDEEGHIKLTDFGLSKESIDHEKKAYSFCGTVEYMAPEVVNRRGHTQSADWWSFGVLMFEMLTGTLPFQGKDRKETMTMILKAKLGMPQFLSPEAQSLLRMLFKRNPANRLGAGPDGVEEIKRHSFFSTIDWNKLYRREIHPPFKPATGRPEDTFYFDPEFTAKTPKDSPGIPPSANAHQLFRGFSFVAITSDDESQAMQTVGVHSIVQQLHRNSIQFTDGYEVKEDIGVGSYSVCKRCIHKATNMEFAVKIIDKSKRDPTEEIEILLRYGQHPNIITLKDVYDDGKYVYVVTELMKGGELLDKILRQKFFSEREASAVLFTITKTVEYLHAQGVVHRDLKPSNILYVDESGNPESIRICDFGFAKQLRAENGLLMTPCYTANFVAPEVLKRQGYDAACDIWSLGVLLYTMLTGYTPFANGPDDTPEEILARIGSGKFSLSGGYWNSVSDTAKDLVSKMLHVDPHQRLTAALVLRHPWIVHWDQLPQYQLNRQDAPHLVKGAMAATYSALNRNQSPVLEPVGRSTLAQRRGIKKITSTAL
UniProt Q13464: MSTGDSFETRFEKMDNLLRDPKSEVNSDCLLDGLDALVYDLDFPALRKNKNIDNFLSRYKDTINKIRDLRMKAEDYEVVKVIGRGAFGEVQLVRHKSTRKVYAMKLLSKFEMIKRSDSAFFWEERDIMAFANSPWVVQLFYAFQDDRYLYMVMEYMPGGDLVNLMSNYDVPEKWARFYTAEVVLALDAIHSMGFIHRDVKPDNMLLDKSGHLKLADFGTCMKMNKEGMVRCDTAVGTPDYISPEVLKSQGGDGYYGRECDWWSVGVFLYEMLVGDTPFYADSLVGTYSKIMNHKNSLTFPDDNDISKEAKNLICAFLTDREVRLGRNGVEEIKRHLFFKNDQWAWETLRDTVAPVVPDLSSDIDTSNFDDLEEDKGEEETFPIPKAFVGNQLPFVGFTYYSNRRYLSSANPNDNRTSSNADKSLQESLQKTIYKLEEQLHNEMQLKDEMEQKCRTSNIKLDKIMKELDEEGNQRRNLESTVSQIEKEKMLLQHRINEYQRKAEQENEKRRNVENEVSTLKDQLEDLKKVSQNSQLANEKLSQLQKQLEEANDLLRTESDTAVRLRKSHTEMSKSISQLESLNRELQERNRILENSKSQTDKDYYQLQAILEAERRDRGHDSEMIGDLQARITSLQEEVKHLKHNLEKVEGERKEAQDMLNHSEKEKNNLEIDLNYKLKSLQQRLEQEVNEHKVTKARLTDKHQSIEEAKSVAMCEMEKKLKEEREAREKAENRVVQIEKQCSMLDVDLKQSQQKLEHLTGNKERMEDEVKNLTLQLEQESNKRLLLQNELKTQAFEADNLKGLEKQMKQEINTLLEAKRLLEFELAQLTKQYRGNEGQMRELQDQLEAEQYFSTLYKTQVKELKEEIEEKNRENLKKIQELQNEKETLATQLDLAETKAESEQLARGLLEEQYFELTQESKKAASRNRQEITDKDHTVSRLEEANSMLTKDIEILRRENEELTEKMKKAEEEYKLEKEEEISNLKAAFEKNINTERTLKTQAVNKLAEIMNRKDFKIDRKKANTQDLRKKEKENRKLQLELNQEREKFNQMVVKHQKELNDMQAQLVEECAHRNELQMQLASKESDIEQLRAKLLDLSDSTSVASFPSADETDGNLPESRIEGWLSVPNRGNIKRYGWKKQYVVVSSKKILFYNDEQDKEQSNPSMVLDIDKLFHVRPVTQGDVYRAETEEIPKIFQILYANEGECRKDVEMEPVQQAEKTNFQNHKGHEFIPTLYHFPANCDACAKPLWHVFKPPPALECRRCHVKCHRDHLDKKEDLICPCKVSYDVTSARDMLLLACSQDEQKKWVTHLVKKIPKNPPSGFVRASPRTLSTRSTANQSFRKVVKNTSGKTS
UniProt Q8N122, whole entry, looked up: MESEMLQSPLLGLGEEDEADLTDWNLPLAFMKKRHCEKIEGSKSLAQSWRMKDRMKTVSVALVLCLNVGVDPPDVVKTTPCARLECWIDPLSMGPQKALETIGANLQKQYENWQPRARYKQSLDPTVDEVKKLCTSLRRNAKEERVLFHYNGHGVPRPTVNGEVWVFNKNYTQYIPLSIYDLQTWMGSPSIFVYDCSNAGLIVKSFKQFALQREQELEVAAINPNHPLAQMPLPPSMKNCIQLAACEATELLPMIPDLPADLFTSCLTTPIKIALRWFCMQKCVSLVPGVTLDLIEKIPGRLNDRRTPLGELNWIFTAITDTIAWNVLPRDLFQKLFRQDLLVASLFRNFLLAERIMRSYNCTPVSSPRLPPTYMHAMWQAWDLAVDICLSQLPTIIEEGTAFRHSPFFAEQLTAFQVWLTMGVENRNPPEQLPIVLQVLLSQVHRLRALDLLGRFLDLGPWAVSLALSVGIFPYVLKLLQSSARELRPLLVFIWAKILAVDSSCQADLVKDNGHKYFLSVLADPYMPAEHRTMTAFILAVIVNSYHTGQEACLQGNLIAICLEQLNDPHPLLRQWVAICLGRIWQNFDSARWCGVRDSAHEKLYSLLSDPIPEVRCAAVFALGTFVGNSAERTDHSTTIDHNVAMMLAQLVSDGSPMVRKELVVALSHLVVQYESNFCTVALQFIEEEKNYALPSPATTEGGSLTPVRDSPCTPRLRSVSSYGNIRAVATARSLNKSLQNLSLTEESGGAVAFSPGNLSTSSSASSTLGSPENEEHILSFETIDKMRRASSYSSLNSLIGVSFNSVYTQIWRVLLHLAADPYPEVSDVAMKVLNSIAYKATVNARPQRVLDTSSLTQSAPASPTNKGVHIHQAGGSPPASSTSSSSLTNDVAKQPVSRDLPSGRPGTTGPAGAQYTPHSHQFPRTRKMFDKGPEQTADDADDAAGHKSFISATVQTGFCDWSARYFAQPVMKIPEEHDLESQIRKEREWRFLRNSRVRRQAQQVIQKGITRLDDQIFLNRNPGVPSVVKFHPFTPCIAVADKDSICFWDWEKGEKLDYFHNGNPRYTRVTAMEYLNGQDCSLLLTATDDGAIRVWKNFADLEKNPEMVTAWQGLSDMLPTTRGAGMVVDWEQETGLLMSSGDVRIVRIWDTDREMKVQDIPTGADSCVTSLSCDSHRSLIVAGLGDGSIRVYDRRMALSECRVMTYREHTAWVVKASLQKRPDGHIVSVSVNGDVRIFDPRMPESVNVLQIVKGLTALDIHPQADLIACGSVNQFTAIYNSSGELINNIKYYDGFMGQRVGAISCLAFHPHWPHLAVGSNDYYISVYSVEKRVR

Assays:
Test in all cases: log2 fold change, soluble protein after heating vs DMSO (PISA); higher = thermal stabilisation; K562 cells, 10 uM, 30 min; active = over 0.2 and 3.5 SD of the protein, either way, in both replicates (recomputed)
[1] = compound: COC1=CC=C(C=C1)CN2C=CC3=C2C=C(C=C3)C(=O)NO
Procedure, shortened: (§1)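 K562 cells (2×10^6 cells/mL) were treated with 10 μM compound for 30 min, and aliquots were heated for 3 min over 48°C-58°C. Pooled aliquots were extracted in PBS with 0.5% NP-40 at 4°C, and the supernatant after 21,000xg for 90 min was measured by TMTpro 16plex LC-MS/MS with channel sums equalised. Reported thermal stability, relative to control samples and from duplicates, is a log2 fold change.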

filanesib = compound: CON(C)C(=O)N1N=C(c2cc(F)ccc2F)S[C@@]1(CCCN)c1ccccc1 [filanesib]
Procedure, shortened: as §1

zotarolimus = compound: CO[C@H]1C[C@@H]2CC[C@@H](C)[C@@](O)(O2)C(=O)C(=O)N2CCCC[C@H]2C(=O)O[C@H]([C@H](C)C[C@@H]2CC[C@H](n3cnnn3)[C@H](OC)C2)CC(=O)[C@H](C)/C=C(\C)[C@@H](O)[C@@H](OC)C(=O)[C@H](C)C[C@H](C)/C=C/C=C/C=C/1C [zotarolimus]
Procedure, shortened: as §1

idasanutlin = compound: COc1cc(C(=O)O)ccc1NC(=O)[C@@H]1N[C@@H](CC(C)(C)C)[C@](C#N)(c2ccc(Cl)cc2F)[C@H]1c1cccc(Cl)c1F [idasanutlin]
Procedure, shortened: as §1

alisertib = compound: COc1cc(Nc2ncc3c(n2)-c2ccc(Cl)cc2C(c2c(F)cccc2OC)=NC3)ccc1C(=O)O [alisertib]
Procedure, shortened: as §1

[2] = compound: COc1cc2nc(-c3cc(F)ccc3O)nc(N[C@@H]3CNC[C@H]3C(C)(C)O)c2cc1OC
Procedure, shortened: as §1

gefitinib = compound: COc1cc2ncnc(Nc3ccc(F)c(Cl)c3)c2cc1OCCCN1CCOCC1 [gefitinib]
Procedure, shortened: as §1

[3] = compound: COc1cccc2cc(-c3nc([C@H]4CC[C@H](C(=O)O)CC4)n4ncnc(N)c34)[nH]c12
Procedure, shortened: as §1

lapatinib = compound: CS(=O)(=O)CCNCc1ccc(-c2ccc3ncnc(Nc4ccc(OCc5cccc(F)c5)c(Cl)c4)c3c2)o1 [lapatinib]
Procedure, shortened: as §1

pictilisib = compound: CS(=O)(=O)N1CCN(Cc2cc3nc(-c4cccc5[nH]ncc45)nc(N4CCOCC4)c3s2)CC1 [pictilisib]
Procedure, shortened: as §1

[4] = compound: CS(=O)(=O)c1ccc(-c2cnc(N)c(C(=O)Nc3ccccc3)n2)cc1
Procedure, shortened: as §1

crizotinib = compound: C[C@@H](Oc1cc(-c2cnn(C3CCNCC3)c2)cnc1N)c1c(Cl)ccc(F)c1Cl [crizotinib]
Procedure, shortened: as §1

[5] = compound: C[C@@H]1COCCN1C2=NC(=NC(=C2)C3(CC3)S(=O)(=O)C)C4=C5C=CNC5=CC=C4
Procedure, shortened: as §1

[6] = compound: C[C@H](C1=CC=C(C=C1)C(=O)NC2=C3C=CNC3=NC=C2)N
Procedure, shortened: as §1

gandotinib = compound: Cc1cc(Nc2cc(CN3CCOCC3)c3nc(C)c(Cc4ccc(Cl)cc4F)n3n2)n[nH]1 [gandotinib]
Procedure, shortened: as §1

[7] = compound: Cc1cc(SCc2sc(-c3ccc(C(F)(F)F)cc3)nc2C)ccc1OCC(=O)O
Procedure, shortened: as §1

doramapimod = compound: Cc1ccc(-n2nc(C(C)(C)C)cc2NC(=O)Nc2ccc(OCCN3CCOCC3)c3ccccc23)cc1 [doramapimod]
Procedure, shortened: as §1

ispinesib = compound: Cc1ccc(C(=O)N(CCCN)[C@@H](c2nc3cc(Cl)ccc3c(=O)n2Cc2ccccc2)C(C)C)cc1 [ispinesib]
Procedure, shortened: as §1

duvelisib = compound: C[C@H](Nc1ncnc2nc[nH]c12)c1cc2cccc(Cl)c2c(=O)n1-c1ccccc1 [duvelisib]
Procedure, shortened: as §1

tozasertib = compound: Cc1cc(Nc2cc(N3CCN(C)CC3)nc(Sc3ccc(NC(=O)C4CC4)cc3)n2)n[nH]1 [tozasertib]
Procedure, shortened: as §1

Measured: log2 fold change

RPA3 (UniProt P35244)
inactive: [1] 0.054 | filanesib -0.038 | zotarolimus 0.056 | idasanutlin -0.064 | alisertib 0.073 | [2] -0.05 | gefitinib -0.01 | [3] -0.048 | lapatinib 0.04 | pictilisib 0.046 | [4] -0.044 | crizotinib 0.042 | [5] -0.162 | [6] -0.098 | gandotinib 0.11 | [7] 0.003 | doramapimod -0.054 | ispinesib 0.109

ROR2 (UniProt Q01974)
inactive: [1] -0.172 | filanesib -0.017 | zotarolimus 0.082 | idasanutlin 0 | alisertib -0.013 | [2] 0.022 | gefitinib 0.009 | [3] 0.012 | lapatinib 0.021 | pictilisib -0.079 | [4] 0.028 | crizotinib 0.007 | [5] 0.081 | [6] -0.031 | gandotinib -0.007 | [7] 0.097 | doramapimod -0.04 | ispinesib 0.083

RPRD1B (UniProt Q9NQG5)
inactive: [1] 0.014 | filanesib 0.022 | zotarolimus -0.018 | idasanutlin -0.031 | alisertib -0.011 | [2] 0.106 | gefitinib 0.037 | [3] 0.061 | lapatinib -0.004 | pictilisib 0.019 | [4] -0.104 | crizotinib 0.072 | [5] 0.062 | [6] -0.042 | gandotinib -0.227 | [7] 0.062 | doramapimod -0.044 | ispinesib 0.039

RPS20 isoform 2 (UniProt P60866)
inactive: [1] -0.086 | filanesib 0.085 | zotarolimus 0.019 | idasanutlin 0.047 | alisertib -0.018 | [2] -0.015 | gefitinib -0.036 | [3] -0.157 | lapatinib 0.108 | pictilisib -0.006 | [4] -0.062 | crizotinib 0.013 | [5] -0.176 | [6] 0.174 | gandotinib 0.129 | [7] 0.004 | doramapimod 0.048 | ispinesib -0.066

RRAGB (UniProt Q5VZM2)
inactive: [1] -0.018 | filanesib -0.059 | zotarolimus -0.086 | idasanutlin -0.026 | alisertib -0.054 | [2] -0.078 | gefitinib -0.003 | [3] 0.053 | lapatinib 0.042 | pictilisib 0.052 | [4] 0.016 | crizotinib -0.131 | [5] 0.01 | [6] -0.123 | gandotinib -0.008 | [7] -0.011 | doramapimod 0.015 | ispinesib -0.065

RPP14 (UniProt O95059)
inactive: [1] -0.006 | filanesib 0.046 | zotarolimus 0.004 | idasanutlin -0.038 | alisertib -0.051 | [2] -0.053 | gefitinib -0.022 | [3] 0.047 | lapatinib 0.042 | pictilisib -0.19 | [4] -0.048 | crizotinib -0.046 | [5] 0.019 | [6] -0.076 | gandotinib -0.119 | [7] -0.054 | doramapimod 0.06 | ispinesib 0.03

RPL37 (UniProt P61927)
inactive: [1] -0.043 | filanesib 0.528 | zotarolimus -0.074 | idasanutlin 0.247 | alisertib -0.104 | [2] -0.219 | gefitinib -0.033 | [3] -0.224 | lapatinib -0.058 | pictilisib -0.205 | [4] -0.11 | crizotinib 0.003 | [6] 0.424 | duvelisib -0.311 | gandotinib 0.138 | tozasertib 0.01 | [7] -0.175 | doramapimod 0.281 | ispinesib -0.25

RNPS1 (UniProt Q15287)
inactive: [1] 0.062 | filanesib 0.13 | zotarolimus -0.014 | idasanutlin 0.274 | alisertib 0.024 | [2] -0.073 | gefitinib 0.04 | [3] -0.005 | lapatinib 0.075 | pictilisib -0.001 | [4] 0.018 | crizotinib -0.109 | [5] 0.114 | [6] -0.019 | gandotinib 0.089 | [7] -0.028 | doramapimod -0.104 | ispinesib 0.042

RPP25L (UniProt Q8N5L8)
inactive: [1] 0.107 | filanesib 0.012 | zotarolimus -0.002 | idasanutlin 0.069 | alisertib -0.093 | [2] -0.12 | gefitinib 0.054 | [3] -0.068 | lapatinib 0.042 | pictilisib -0.052 | [4] -0.031 | crizotinib 0.059 | [5] -0.014 | [6] 0.145 | gandotinib 0.045 | [7] -0.019 | doramapimod -0.005 | ispinesib -0.027

RPS9 (UniProt P46781)
inactive: [1] -0.036 | filanesib 0.237 | zotarolimus 0.032 | idasanutlin 0.098 | alisertib -0.101 | [2] -0.083 | gefitinib -0.055 | [3] -0.211 | lapatinib 0.084 | pictilisib -0.195 | [4] -0.075 | crizotinib 0.02 | [5] -0.401 | [6] 0.278 | gandotinib 0.188 | [7] 0.024 | doramapimod 0.174 | ispinesib -0.04

RNPEP (UniProt Q9H4A4)
inactive: [1] 0.008 | filanesib -0.083 | zotarolimus 0.044 | idasanutlin -0.02 | alisertib -0.018 | [2] -0.009 | gefitinib -0.023 | [3] 0 | lapatinib 0.043 | pictilisib 0.008 | [4] 0.037 | crizotinib -0.081 | [5] 0.081 | [6] -0.034 | gandotinib -0.053 | [7] 0.083 | doramapimod -0.031 | ispinesib -0.086

RPS6KA3 (UniProt P51812)
inactive: [1] -0.013 | filanesib 0 | zotarolimus 0.033 | idasanutlin -0.008 | [2] -0.221 | gefitinib -0.033 | [3] 0.013 | lapatinib 0.011 | pictilisib -0.011 | [4] 0.023 | crizotinib -0.107 | [5] 0.024 | [6] -0.177 | gandotinib -0.019 | [7] 0.032 | doramapimod -0.066 | ispinesib -0.017

ROCK1 (UniProt Q13464)
inactive: [1] 0.037 | filanesib -0.028 | zotarolimus 0.003 | idasanutlin -0.005 | alisertib 0.067 | gefitinib -0.012 | [3] -0.005 | lapatinib 0.012 | pictilisib -0.012 | [4] 0.016 | crizotinib -0.017 | [5] 0.042 | gandotinib -0.025 | [7] 0.027 | doramapimod -0.025 | ispinesib -0.069
active: [2] 0.246

Two successive records out of the list so far, for reference:
RPP25L (UniProt Q8N5L8)
inactive: [1] 0.107 | filanesib 0.012 | zotarolimus -0.002 | idasanutlin 0.069 | alisertib -0.093 | [2] -0.12 | gefitinib 0.054 | [3] -0.068 | lapatinib 0.042 | pictilisib -0.052 | [4] -0.031 | crizotinib 0.059 | [5] -0.014 | [6] 0.145 | gandotinib 0.045 | [7] -0.019 | doramapimod -0.005 | ispinesib -0.027

RPS9 (UniProt P46781)
inactive: [1] -0.036 | filanesib 0.237 | zotarolimus 0.032 | idasanutlin 0.098 | alisertib -0.101 | [2] -0.083 | gefitinib -0.055 | [3] -0.211 | lapatinib 0.084 | pictilisib -0.195 | [4] -0.075 | crizotinib 0.02 | [5] -0.401 | [6] 0.278 | gandotinib 0.188 | [7] 0.024 | doramapimod 0.174 | ispinesib -0.04

Additional results:

RPS18 (UniProt P62269)
inactive: [1] -0.157 | filanesib 0.118 | zotarolimus 0.012 | idasanutlin 0.046 | alisertib -0.015 | [2] -0.021 | gefitinib -0.013 | [3] -0.109 | lapatinib 0.065 | pictilisib -0.107 | [4] -0.022 | crizotinib 0.033 | [5] -0.244 | [6] 0.222 | gandotinib 0.129 | [7] -0.002 | doramapimod 0.105 | ispinesib -0.074

RPS15 (UniProt P62841)
inactive: [1] 0.086 | filanesib 0.192 | zotarolimus -0.082 | idasanutlin 0.049 | alisertib -0.107 | [2] 0.027 | gefitinib 0.008 | [3] -0.147 | lapatinib -0.01 | pictilisib -0.054 | [4] 0.032 | crizotinib 0 | [5] -0.174 | gandotinib 0.137 | [7] -0.045 | doramapimod 0.032 | ispinesib -0.003
active: [6] 0.45

RPS2 (UniProt P15880)
inactive: [1] -0.049 | filanesib 0.214 | zotarolimus -0.013 | idasanutlin 0.114 | alisertib -0.1 | [2] -0.027 | gefitinib -0.05 | [3] -0.184 | lapatinib 0.094 | pictilisib -0.143 | [4] -0.045 | crizotinib 0.043 | [5] -0.369 | [6] 0.286 | gandotinib 0.202 | [7] 0.007 | doramapimod 0.131 | ispinesib -0.162

RPTOR (UniProt Q8N122)
inactive: [1] 0.042 | filanesib -0.077 | zotarolimus -0.194 | idasanutlin -0.066 | alisertib -0.054 | [2] -0.056 | gefitinib 0.007 | [3] -0.072 | lapatinib 0.028 | pictilisib -0.022 | [4] 0.012 | crizotinib -0.188 | [5] -0.031 | [6] 0.033 | gandotinib -0.115 | [7] 0.01 | doramapimod -0.009 | ispinesib -0.114
